# According to the supplement of paper PMC8728848:
# The other results are listed elsewhere or left out.
# Experiments:
# Assay in all cases: glycan array binding signal (z-score within array); higher = stronger binding
# Conditions in all cases: glycan notation: IUPAC condensed, linker removed
# [1] = target: Neu5Ac(a2-3)GalNAc
# How it was run: (§1)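 From the Consortium for Functional Glycomics database, 3228 arrays were curated, keeping only those whose protein sequence was available. Binding is given as a within-array Z-score averaged across arrays sharing a protein sequence and across linkers. Negative Z-scores can be read as non-binding.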
# [2] = target: Neu5Ac(a2-3)GalNAc(b1-4)GlcNAc
# How it was run: as §1
# [3] = target: Neu5Ac(a2-3)[GalNAc(b1-4)]Gal(b1-4)Glc
# How it was run: as §1
# [4] = target: Neu5Ac(a2-3)[GalNAc(b1-4)]Gal(b1-4)GlcNAc
# How it was run: as §1
# [5] = target: Neu5Ac(a2-3)[Neu5Ac(a2-6)]GalNAc
# How it was run: as §1
# [6] = target: Neu5Ac(a2-6)Gal
# How it was run: as §1
# [7] = target: Neu5Ac(a2-6)Gal(b1-4)Glc
# How it was run: as §1
# [8] = target: Neu5Ac(a2-6)Gal(b1-4)GlcNAc
# How it was run: as §1
# [9] = target: Neu5Ac(a2-6)Gal(b1-4)GlcNAc(b1-2)Man(a1-3)[Neu5Ac(a2-6)Gal(b1-4)GlcNAc(b1-2)Man(a1-6)]Man(b1-4)GlcNAc(b1-4)GlcNAc
# How it was run: as §1
# [10] = target: Neu5Ac(a2-6)Gal(b1-4)GlcNAc(b1-3)Gal(b1-4)GlcNAc
# How it was run: as §1
# [11] = target: Neu5Ac(a2-6)Gal(b1-4)GlcNAc(b1-3)Gal(b1-4)[Fuc(a1-3)]GlcNAc(b1-3)Gal(b1-4)[Fuc(a1-3)]GlcNAc
# How it was run: as §1
# [12] = target: Neu5Ac(a2-6)Gal(b1-4)GlcNAc6S
# How it was run: as §1
# [13] = target: Neu5Ac(a2-6)GalNAc
# How it was run: as §1
# [14] = target: Neu5Ac(a2-6)GalNAc(b1-4)GlcNAc
# How it was run: as §1
# [15] = target: Neu5Ac(a2-8)Neu5Ac
# How it was run: as §1
# [16] = target: Neu5Ac(a2-8)Neu5Ac(a2-3)Gal(b1-4)Glc
# How it was run: as §1
# [17] = target: Neu5Ac(a2-8)Neu5Ac(a2-3)[GalNAc(b1-4)]Gal(b1-4)Glc
# How it was run: as §1
# [18] = target: Neu5Ac(a2-8)Neu5Ac(a2-8)Neu5Ac
# How it was run: as §1
# [19] = target: Neu5Ac(a2-8)Neu5Ac(a2-8)Neu5Ac(a2-3)Gal(b1-4)Glc
# How it was run: as §1
# [20] = target: Neu5Ac(a2-8)Neu5Ac(a2-8)Neu5Ac(a2-3)[GalNAc(b1-4)]Gal(b1-4)Glc
# How it was run: as §1
# [21] = target: Neu5Ac(a2-8)Neu5Ac(a2-8)Neu5Ac(a2-8)Neu5Ac(a2-3)[GalNAc(b1-4)]Gal(b1-4)Glc
# How it was run: as §1
# [22] = target: Neu5Ac(b2-6)Gal(b1-4)GlcNAc
# How it was run: as §1
# [23] = target: Neu5Ac(b2-6)GalNAc
# How it was run: as §1
# [24] = target: Neu5Ac9Ac(a2-6)Gal(b1-4)GlcNAc
# How it was run: as §1
# [25] = target: Neu5Gc(a2-3)Gal(b1-3)GlcNAc
# How it was run: as §1
# [26] = target: Neu5Gc(a2-3)Gal(b1-3)[Fuc(a1-4)]GlcNAc
# How it was run: as §1
# [27] = target: Neu5Gc(a2-3)Gal(b1-4)Glc
# How it was run: as §1
# [28] = target: Neu5Gc(a2-3)Gal(b1-4)GlcNAc
# How it was run: as §1
# [29] = target: Neu5Gc(a2-3)Gal(b1-4)[Fuc(a1-3)]GlcNAc
# How it was run: as §1
# [30] = target: Neu5Gc(a2-6)Gal(b1-4)GlcNAc
# How it was run: as §1
# [31] = target: Neu5Gc(a2-6)GalNAc
# How it was run: as §1
binder,measurement,setting,value
Fap1 (Streptococcus parasanguis) (protein) KATSKGTEEKQDSVRENLDKMISEAEVLNDMAARKLITLDAEQQLELMKSLVATQSQLEATKNLIGDPNATVADLQIAYTTLGNNTQALGNELIKLNPNGQIYAVLNNTEASRAATLRSTTTGTKTTFTISDFSNGGTQYYWAGGNANNLKNPISSISAVYDSATGKISWTVEYDPTTILKSPALKTLKTYTGIYIDTSSDSKLSTPTNVLIDGAATNPVTNFYGNGSKGIEYVSKGTTKGVTKHTITFDTAFSGRANDLADLEIKMLAATTLSDPHFYEDGSKGNYGRYNGQTAPYVIANDSGTAIGGYQVSGVNADSIPSDTT,glycan array binding signal (z-score),[1],-0.853
same,glycan array binding signal (z-score),[2],-0.369
same,glycan array binding signal (z-score),[3],-0.555
same,glycan array binding signal (z-score),[4],-0.662
same,glycan array binding signal (z-score),[5],-0.514
same,glycan array binding signal (z-score),[6],-0.771
same,glycan array binding signal (z-score),[7],-0.161
same,glycan array binding signal (z-score),[8],-0.756
same,glycan array binding signal (z-score),[9],0.052
same,glycan array binding signal (z-score),[10],-0.24
same,glycan array binding signal (z-score),[11],-0.227
same,glycan array binding signal (z-score),[12],1.33
same,glycan array binding signal (z-score),[13],-0.49
same,glycan array binding signal (z-score),[14],-0.646
same,glycan array binding signal (z-score),[15],-0.731
same,glycan array binding signal (z-score),[16],-0.66
same,glycan array binding signal (z-score),[17],-0.585
same,glycan array binding signal (z-score),[18],-0.493
same,glycan array binding signal (z-score),[19],-0.677
same,glycan array binding signal (z-score),[20],-0.898
same,glycan array binding signal (z-score),[21],-0.351
same,glycan array binding signal (z-score),[22],-0.474
same,glycan array binding signal (z-score),[23],-0.746
same,glycan array binding signal (z-score),[24],0.638
same,glycan array binding signal (z-score),[25],-0.57
same,glycan array binding signal (z-score),[26],-0.49
same,glycan array binding signal (z-score),[27],0.477
same,glycan array binding signal (z-score),[28],-0.169
same,glycan array binding signal (z-score),[29],-0.18
same,glycan array binding signal (z-score),[30],0.324
same,glycan array binding signal (z-score),[31],0.46

# A second format for some results above:
binder | measurement | setting | value
Fap1 (Streptococcus parasanguis) (protein) KATSKGTEEKQDSVRENLDKMISEAEVLNDMAARKLITLDAEQQLELMKSLVATQSQLEATKNLIGDPNATVADLQIAYTTLGNNTQALGNELIKLNPNGQIYAVLNNTEASRAATLRSTTTGTKTTFTISDFSNGGTQYYWAGGNANNLKNPISSISAVYDSATGKISWTVEYDPTTILKSPALKTLKTYTGIYIDTSSDSKLSTPTNVLIDGAATNPVTNFYGNGSKGIEYVSKGTTKGVTKHTITFDTAFSGRANDLADLEIKMLAATTLSDPHFYEDGSKGNYGRYNGQTAPYVIANDSGTAIGGYQVSGVNADSIPSDTT | glycan array binding signal (z-score) | [10] | -0.24
same | glycan array binding signal (z-score) | [16] | -0.66
